From patent US20250034271A1
These are yes or no findings as the source states them, for the method shown. Some binding calls cover weakened binding; strength is not graded here.

Sequences of proteins named here, by UniProt entry; tags and fusion partners are left off. A change or cut given only in a name is not applied to a line headed by its entry.
UniProt P25942: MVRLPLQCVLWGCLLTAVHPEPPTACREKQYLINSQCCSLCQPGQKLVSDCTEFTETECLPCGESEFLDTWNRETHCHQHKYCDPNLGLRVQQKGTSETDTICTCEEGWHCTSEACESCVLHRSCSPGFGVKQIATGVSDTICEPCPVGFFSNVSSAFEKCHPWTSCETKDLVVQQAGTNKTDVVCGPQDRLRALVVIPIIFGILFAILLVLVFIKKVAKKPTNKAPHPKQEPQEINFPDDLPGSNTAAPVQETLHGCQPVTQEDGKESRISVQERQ

B1: 6A7-mHvKv-IgG4 (antibody, V domains shown)
VH: QVQLQQPGAELVKPGASVKLSCKASGYTFISYYIYWVKQRPGQGLEWIGGINPRNGGTNFNEKFKSKATLTVDKSSSTAYMQLSSLTSEDSAVYYCTRHGNGVYWGQGTTLTVSS
VL: DVVMTQTPLSLPVSLGDQASISCRSSQSLLHSNGNTYLHWYLQKPGQSPNHLIYQVSNRFSGVPDRFSGSGSGTDFTLKISRVEAEDLGVYFCSQTTHVPWTFGGGTKLEIK
B2: 6A7-H1K1-IgG4 (antibody, V domains shown)
VH: QVQLVQSGAEVKKPGASVKVSCKASGYTFISYYIYWVRQAPGQGLEWMGGINPRNGGTNFNEKFKSRVTLTVDTSISTAYMELSRLRSEDTAVYYCARHGNGVYWGQGTTVTVSS
VL: DVVMTQSPLSLPVTLGQPASISCRSSQSLLHSNGNTYLHWFQQRPGQSPRHLIYQVSNRFSGVPDRFSGSGSGTDFTLKISRVEAEDVGVYYCSQTTHVPWTFGGGTKVEIK

Molecular target: Histidine-tagged human CD40 protein (hCD40-His) (human) (UniProt P25942)
Assay: SPR (Biacore T200), antibody captured on Protein A chip, hCD40-His injected at 0.78125, 3.125, 12.5, 50, 200, 800nM

| Binder | binding |
| --- | --- |
| B1 | binds |
| B2 | binds |
